The other results are listed elsewhere or left out. For some of these results: Construct or isoform of the protein are uncertain.
Key:
Test in all cases: protein microarray (ProtoArray v5.0), streptavidin-Alexa Fluor 647
Conditions in all cases: 3'-biotin; 20 mM Tris (pH 7.5), 5 mM MgCl2, 100 mM KCl, 0.1% Tween-20, A/T-rich and random oligonucleotide blockers; temperature not stated; high values mean tight binding
[1] = tested on: TRIM44 (human)
[2] = tested on: TRIM63 (human)
[3] = biological target: T1, TRIM69 (UniProt Q86WT6)
T1 sequence: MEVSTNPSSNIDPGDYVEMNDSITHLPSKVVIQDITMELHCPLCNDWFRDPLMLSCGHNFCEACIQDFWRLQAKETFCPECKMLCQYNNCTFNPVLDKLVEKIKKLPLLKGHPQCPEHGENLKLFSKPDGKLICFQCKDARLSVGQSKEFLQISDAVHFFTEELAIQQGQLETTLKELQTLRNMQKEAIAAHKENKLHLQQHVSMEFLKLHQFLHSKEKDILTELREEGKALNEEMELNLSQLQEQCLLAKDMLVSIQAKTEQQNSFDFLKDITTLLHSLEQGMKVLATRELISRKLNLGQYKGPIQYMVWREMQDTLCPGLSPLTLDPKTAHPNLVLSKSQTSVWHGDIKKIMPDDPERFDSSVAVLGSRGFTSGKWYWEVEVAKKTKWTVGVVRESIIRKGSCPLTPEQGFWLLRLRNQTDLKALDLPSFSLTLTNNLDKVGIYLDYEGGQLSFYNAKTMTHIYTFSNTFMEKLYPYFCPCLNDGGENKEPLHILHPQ

[4] = tested on: TSC22D3 (human)
[5] = tested on: TSNAXIP1 (human)
[6] = tested on: TSPAN12 (human)
[7] = biological target: T2, TSPAN5 (UniProt P62079)
T2 sequence: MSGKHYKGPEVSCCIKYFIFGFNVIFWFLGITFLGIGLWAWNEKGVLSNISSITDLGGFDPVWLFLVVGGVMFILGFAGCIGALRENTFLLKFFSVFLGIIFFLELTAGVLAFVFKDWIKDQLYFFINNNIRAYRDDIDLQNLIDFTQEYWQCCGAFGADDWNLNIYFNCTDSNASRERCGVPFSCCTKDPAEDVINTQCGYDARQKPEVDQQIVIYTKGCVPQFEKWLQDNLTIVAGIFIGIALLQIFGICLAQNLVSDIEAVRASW

[8] = tested on: TSR2 (human)
[9] = tested on: TTC1 (human)
[10] = tested on: TTC32 (human)

GGGGACAGGGGTATGGGGAGGGG [G4-3 biotinylated (CtG)]
binding signal [1]: -0.338 z-score
binding signal [2]: -0.325 z-score
binding signal [3]: -0.307 z-score
binding signal [4]: -0.33 z-score
binding signal [5]: -0.333 z-score
binding signal [6]: -0.325 z-score
binding signal [7]: -0.307 z-score
binding signal [8]: -0.336 z-score
binding signal [9]: -0.332 z-score
binding signal [10]: -0.318 z-score

Source: article PMC5996148
